Values from PubChem BioAssay AID1259405 (NCATS, 2018)
The whole screen tested about 50,000 reagents; shown is a part drawn at random. Of all reagents, about 4,000 (8%) are marked active. 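Mouse siRNA library applied to hamster cells; one well for each siRNA.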 The numbers tell different reagents against one gene apart. Reagent sequences are not shown.

- Aim: 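Silenced genes that increase secreted GFP made by CHO cells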 (primary screen)
- System: Chinese hamster CHO-K1 ovary cells with stable secreted eGFP expression
- Reagents: single siRNA against mouse genes, 0.8 pmol siRNA per well (2 µl of 400 nM stock)
- Duration: 3 days
- Measured: 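Percent of the per-plate non-targeting control median for intracellular GFP per well by laser scanning cytometry and for cell viability by ATP luminescence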
- Scale: GFP, % of control: higher = more GFP per well, higher productivity; viability (ATP), % of control: higher = more viable cells (more ATP)
- Active means: 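Called active when intracellular GFP, relative to negative control, is at or above 120%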

What is on record for Exosc8 (exosome component 8) #1?
GFP, % of control: 111; viability (ATP), % of control: 106; Call: inactive

With Exosc8 (exosome component 8) #2, what was measured?
GFP, % of control: 39.3; viability (ATP), % of control: 46; Call: inactive

With Exosc8 (exosome component 8) #3, what was measured?
GFP, % of control: 58.9; viability (ATP), % of control: 86.5; Call: inactive

With Defb20 (defensin beta 20) #1, what does the deposit list?
GFP, % of control: 95.7; viability (ATP), % of control: 97.4; Call: inactive

With Defb20 (defensin beta 20) #2, what was measured?
GFP, % of control: 60; viability (ATP), % of control: 49.7; Call: inactive

For Defb20 (defensin beta 20) #3, what does the deposit list?
GFP, % of control: 44.4; viability (ATP), % of control: 54.4; Call: inactive

For Sowahb (sosondowah ankyrin repeat domain family member B) #1, what was measured?
GFP, % of control: 74.3; viability (ATP), % of control: 67.9; Call: inactive

For Sowahb (sosondowah ankyrin repeat domain family member B) #2, what does the deposit list?
GFP, % of control: 70.4; viability (ATP), % of control: 72.9; Call: inactive

How did the screen score Sowahb (sosondowah ankyrin repeat domain family member B) #3?
GFP, % of control: 101; viability (ATP), % of control: 125; Call: inactive

Records above whose target name starts with E or e:
Exosc8 (exosome component 8) #1 | GFP, % of control = 111; viability (ATP), % of control = 106; Call = inactive
Exosc8 (exosome component 8) #2 | GFP, % of control = 39.3; viability (ATP), % of control = 46; Call = inactive
Exosc8 (exosome component 8) #3 | GFP, % of control = 58.9; viability (ATP), % of control = 86.5; Call = inactive

Continued:
With Or4c103 (olfactory receptor family 4 subfamily C member 103) #1, what was measured?
GFP, % of control: 74.4; viability (ATP), % of control: 67.3; Call: inactive

For Or4c103 (olfactory receptor family 4 subfamily C member 103) #2, what was measured?
GFP, % of control: 88.7; viability (ATP), % of control: 65.9; Call: inactive

What is on record for Or4c103 (olfactory receptor family 4 subfamily C member 103) #3?
GFP, % of control: 86.5; viability (ATP), % of control: 75; Call: inactive

What is on record for Pinx1 (PIN2/TERF1 interacting, telomerase inhibitor 1) #1?
GFP, % of control: 82.3; viability (ATP), % of control: 93.9; Call: inactive

Which result is listed for Pinx1 (PIN2/TERF1 interacting, telomerase inhibitor 1) #2?
GFP, % of control: 49.4; viability (ATP), % of control: 57; Call: inactive

With Gnl2 (guanine nucleotide binding protein nucleolar 2) #1, what does the deposit list?
GFP, % of control: 93.1; viability (ATP), % of control: 92.3; Call: inactive

For Gnl2 (guanine nucleotide binding protein nucleolar 2) #2, what was measured?
GFP, % of control: 77.6; viability (ATP), % of control: 75.6; Call: inactive

Which result is listed for Gnl2 (guanine nucleotide binding protein nucleolar 2) #3?
GFP, % of control: 92.3; viability (ATP), % of control: 94.9; Call: inactive

For Kif3a (kinesin family member 3A) #1, how do the results read?
GFP, % of control: 89.5; viability (ATP), % of control: 81.4; Call: inactive

For Kif3a (kinesin family member 3A) #2, what does the deposit list?
GFP, % of control: 105; viability (ATP), % of control: 75.7; Call: inactive

For Ksr1 (kinase suppressor of ras 1) #1, what was measured?
GFP, % of control: 77.3; viability (ATP), % of control: 65.3; Call: inactive

For Ksr1 (kinase suppressor of ras 1) #2, how do the results read?
GFP, % of control: 88.6; viability (ATP), % of control: 67.9; Call: inactive

What did the screen give for Ksr1 (kinase suppressor of ras 1) #3?
GFP, % of control: 84.5; viability (ATP), % of control: 88.7; Call: inactive

How did the screen score Pitpnm3 (PITPNM family member 3) #1?
GFP, % of control: 98.4; viability (ATP), % of control: 122; Call: inactive

How did the screen score Pitpnm3 (PITPNM family member 3) #2?
GFP, % of control: 72.8; viability (ATP), % of control: 73.1; Call: inactive

For Pitpnm3 (PITPNM family member 3) #3, how do the results read?
GFP, % of control: 61.8; viability (ATP), % of control: 68.8; Call: inactive

With BC106179 (cDNA sequence BC106179) #1, what was measured?
GFP, % of control: 68; viability (ATP), % of control: 72.2; Call: inactive

For BC106179 (cDNA sequence BC106179) #2, what was measured?
GFP, % of control: 55; viability (ATP), % of control: 68.6; Call: inactive

What is on record for BC106179 (cDNA sequence BC106179) #3?
GFP, % of control: 59.8; viability (ATP), % of control: 46.6; Call: inactive
